The list shows only some results of the screen, not a fair sample: it is rich in T/C values a quarter to a half above the control, in often repeated tests (any T/C) and in doses without a T/C. Other doses and runs of a compound stand elsewhere. T/C gives the treated animals as a percentage of the vehicle group. Some entries give survivors of the animals treated and no T/C: the source holds a T/C of zero for them, seemingly a mark for toxic or unscored doses. Some doses without a T/C left all or most animals alive at the check, yet need not have been tolerated: the source hardly ever lists a survival T/C far under the control, and the zero likely stands for such cases as well. Survivors were counted at the toxicity check, usually on the fifth day, unless a day is given; later deaths do not show. Schedule codes are those of the source, read here as Q, the interval in days (D) or hours (H), X, the number of doses. Some schedule codes hold Z or #, which are not explained here. Where survival is the endpoint, this PubChem deposit counts one and a half times the control or more as active, and values a quarter to a half above the control carry no call in these data; other NCI protocols may use other cut-offs. Some entries were tested several times; the results are listed from low to high. Some T/C values carry the count of animals alive at the toxicity check (mostly the fifth day); without a count, all were alive then.
Tested on: L1210 leukemia ip in BDF1 mice, survival T/C
Assay: NCI In Vivo Anticancer Drug Screen. Data for tumor model L1210 Leukemia (intraperitoneal) in B6D2F1 (BDF1) mice
Conditions: T/C endpoint: mean survival time, higher T/C = longer survival
[1] = dose: 400.0 mg/kg/injection, schedule: Q01DX009 (ip), vehicle: Klucel (hydroxypropylcellulose) (HPC)
[2] = dose: 300.0 mg/kg/injection, schedule: Q01DX001 (ip), vehicle: saline
[3] = dose: 200.0 mg/kg/injection, schedule: Q04DX003 (ip), vehicle: Klucel (hydroxypropylcellulose) (HPC)
[4] = dose: 400.0 mg/kg/injection, schedule: Q04DX003 (ip), vehicle: Klucel (hydroxypropylcellulose) (HPC)
[5] = dose: 400.0 mg/kg/injection, schedule: Q04DX002 (ip), vehicle: saline with Tween-80
[6] = dose: 100.0 mg/kg/injection, schedule: Q04DX003 (ip), vehicle: saline with Tween-80
[7] = dose: 400.0 mg/kg/injection, schedule: Q04DX003 (ip), vehicle: saline with Tween-80
[8] = dose: 50.0 mg/kg/injection, schedule: Q04DX003 (ip), vehicle: saline with Tween-80
[9] = dose: 200.0 mg/kg/injection, schedule: Q04DX003 (ip), vehicle: saline
[10] = dose: 400.0 mg/kg/injection, schedule: Q04DX003 (ip), vehicle: saline

Q: With `CC(=O)C(N=Nc1ccccc1)C(C)=O` as the molecule, how does the survivor count (dose: 200.0 mg/kg/injection, schedule: Q01DX009 (ip), vehicle: Klucel (hydroxypropylcellulose) (HPC)) read?
A: 0 of 6

Q: What about the survivor count [1] of the same molecule?
A: 0 of 6

Q: Which survivor count [2] does the source give for `CCOC(=O)C(=N\Nc1ccc(C)c(C)c1)/C(C)=N\NC(N)=S` here?
A: 0 of 6

Q: Which results are given for `Cc1cc(C)c(C2CC3CCC2C3)cc1N` (configuration not stated)?
A: survivor count (dose: 100.0 mg/kg/injection, schedule: Q04DX002 (ip), vehicle: saline): 3 of 3; T/C [3]: 139 % of control [5 of 6 alive]; survivor count (dose: 400.0 mg/kg/injection, schedule: Q04DX002 (ip), vehicle: saline): 1 of 3; survivor count [4]: 0 of 6

Q: Which survivor count (dose: 400.0 mg/kg/injection, schedule: Q01DX001 (ip), vehicle: Klucel (hydroxypropylcellulose) (HPC)) does the source give for `ClCCCC#Cc1ccccc1` here?
A: 3 of 6

Q: Which survivor count [5] does the source give for `CC1CS(=O)(=O)O1` (configuration not stated) here?
A: 1 of 3

Q: How did the survivor count (dose: 400.0 mg/kg/injection, schedule: Q01DX001 (ip), vehicle: carboxymethylcellulose (CMC)) turn out when `N#CCc1ccc(C(=O)O)cc1` was run?
A: 1 of 4

Q: What does the source list for `OC(CNc1ccc(Cl)cc1)CN1CCCC1` (configuration not stated)?
A: survivor count (dose: 150.0 mg/kg/injection, schedule: Q04DX003 (ip), vehicle: saline): 0 of 6; survivor count (dose: 300.0 mg/kg/injection, schedule: Q04DX003 (ip), vehicle: saline): 0 of 6

Q: How did the survivor count (dose: 200.0 mg/kg/injection, schedule: Q01DX001 (ip), vehicle: other) turn out when `N#Cc1ccc(/C=N\NC(=O)CCCC(=O)N/N=C/c2ccc(C#N)cc2)cc1` was run?
A: 4 of 4

Q: `Cc1cc2c(cc1C)[n+]([O-])c1c(=O)[nH]c(=O)nc-1n2CC(O)C(O)C(O)CO` (configuration not stated) was tested. Which survivor count [5] did it give?
A: 2 of 3

Q: `CN(C)C(c1ccccc1)C(CBr)C(=O)c1ccc(Br)cc1` (configuration not stated) was tested. Which survivor count (dose: 50.0 mg/kg/injection, schedule: Q01DX009 (ip), vehicle: saline) did it give?
A: 0 of 6

Q: What about the survivor count [6] of the same molecule?
A: 5 of 6

Q: What about the survivor count (dose: 200.0 mg/kg/injection, schedule: Q04DX003 (ip), vehicle: saline with Tween-80) of the same molecule?
A: 0 of 6

Q: What about the survivor count [7] of the same molecule?
A: 0 of 6

Q: How did the survivor count (dose: 300.0 mg/kg/injection, schedule: Q01DX Z (ip), vehicle: saline) turn out when `O=P(OCc1ccccc1)(N(CCCl)CCCl)N1CCN(Cc2ccccc2)CC1` (configuration not stated) was run?
A: 1 of 6

Q: `CCOC(=O)CC(=O)Cc1cccc([N+](=O)[O-])c1` was tested. Which survivor count [1] did it give?
A: 5 of 6

Q: For `O=C(Oc1ccccc1C(=O)O)c1ccccc1O`, which survivor count [3] is on record?
A: 3 of 3

Q: With `CC(C)C1(C(=O)N2CCCCC2=O)SCCCS1` as the molecule, how does the survivor count [8] read?
A: 6 of 6

Q: `Cc1nc(Cl)c2cnccn12` was tested. Which survivor count [9] did it give?
A: 0 of 6

Q: And the survivor count [10]?
A: 0 of 6

Q: For `Cc1ccc(C(=O)Cl)cc1S(=O)(=O)F`, which survivor count (dose: 100.0 mg/kg/injection, schedule: Q01DX009 (ip), vehicle: saline with Tween-80) is on record?
A: 3 of 6

Q: What about the survivor count [6] of the same molecule?
A: 6 of 6

Q: And the survivor count (dose: 200.0 mg/kg/injection, schedule: Q01DX009 (ip), vehicle: saline with Tween-80)?
A: 3 of 6

Q: And the survivor count [7]?
A: 2 of 6

Q: `C=CC12CN(C)C3C4COC(CC41)C1(C(=O)Nc4ccccc41)C32` (configuration not stated) was tested. Which survivor count (dose: 150.0 mg/kg/injection, schedule: Q01DX001 (ip), vehicle: other) did it give?
A: 3 of 6

Q: What about the survivor count (dose: 300.0 mg/kg/injection, schedule: Q01DX001 (ip), vehicle: other) of the same molecule?
A: 0 of 6

Q: What does the source list for `O=c1[nH]c2cc(Cl)ccc2c(CCl)c1Cl`?
A: survivor count (dose: 150.0 mg/kg/injection, schedule: Q01DX009 (ip), vehicle: saline with Tween-80): 3 of 6; survivor count (dose: 200.0 mg/kg/injection, schedule: Q04DX003 (ip), vehicle: acetone): 3 of 6; survivor count (dose: 225.0 mg/kg/injection, schedule: Q01DX009 (ip), vehicle: saline with Tween-80): 4 of 6; survivor count (dose: 335.0 mg/kg/injection, schedule: Q01DX009 (ip), vehicle: saline with Tween-80): 0 of 6; survivor count (dose: 400.0 mg/kg/injection, schedule: Q04DX003 (ip), vehicle: acetone): 0 of 6

Q: Which survivor count [8] does the source give for `CCCCCc1ccc(/C(C)=N/NC(=O)c2ccc[n+](C)c2)cc1` here?
A: 2 of 6

Q: And the survivor count [6]?
A: 0 of 6

Q: With `NC(=O)c1nc(C(F)(F)F)[nH]c1C(N)=O` as the molecule, how does the survivor count (dose: 400.0 mg/kg/injection, schedule: Q04DX003 (ip), vehicle: water) read?
A: 3 of 6

Q: With `C/C(=C\Cl)CN(C)S(=O)(=O)c1ccc(Br)cc1` as the molecule, how does the survivor count [1] read?
A: 1 of 6

Q: For `Nc1nc2nc(C(=O)O)cnc2c(=O)[nH]1`, which survivor count (dose: 50.0 mg/kg/injection, schedule: Q04DX003 (ip), vehicle: saline) is on record?
A: 2 of 6

Q: And the survivor count (dose: 100.0 mg/kg/injection, schedule: Q04DX003 (ip), vehicle: saline)?
A: 3 of 6

Q: What about the survivor count [9] of the same molecule?
A: 1 of 6

Q: What about the survivor count [10] of the same molecule?
A: 0 of 6

Q: For `O=C(N/N=C/c1cccc([N+](=O)[O-])c1)c1ccc(O)cc1`, which survivor count (dose: 400.0 mg/kg/injection, schedule: Q04DX002 (ip), vehicle: Klucel (hydroxypropylcellulose) (HPC)) is on record?
A: 3 of 3

Q: How did the survivor count (dose: 150.0 mg/kg/injection, schedule: Q01DX009 (ip), vehicle: Klucel (hydroxypropylcellulose) (HPC)) turn out when `Cc1cc(=O)n2c3c(c4c(cc13)c(CBr)cc(=O)n4C)OC2` was run?
A: 2 of 6

Q: And the survivor count (dose: 300.0 mg/kg/injection, schedule: Q01DX009 (ip), vehicle: Klucel (hydroxypropylcellulose) (HPC))?
A: 2 of 6

Q: Which results are given for `CCc1c(N)nc(N)nc1Cl`?
A: survivor count (dose: 50.0 mg/kg/injection, schedule: Q01DX Z (ip), vehicle: methylcellulose (MC)): 6 of 6; survivor count (dose: 100.0 mg/kg/injection, schedule: Q01DX Z (ip), vehicle: methylcellulose (MC)): 6 of 6; survivor count (dose: 200.0 mg/kg/injection, schedule: Q01DX Z (ip), vehicle: methylcellulose (MC)): 6 of 6

Q: With `CCCCN(CC)C(=S)[S-].CCCCN(CC)C(=S)[S-].[Zn]` as the molecule, how does the survivor count (dose: 40.0 mg/kg/injection, schedule: Q04DX003 (ip), vehicle: saline) read?
A: 5 of 6

Q: And the survivor count (dose: 75.0 mg/kg/injection, schedule: Q01DX001 (ip), vehicle: saline)?
A: 2 of 6

Q: What about the survivor count (dose: 150.0 mg/kg/injection, schedule: Q01DX001 (ip), vehicle: saline) of the same molecule?
A: 0 of 6

Q: And the survivor count [2]?
A: 0 of 6

Q: Which T/C (dose: 66.0 mg/kg/injection, schedule: Q01DX009 (ip), vehicle: saline) does the source give for `Cc1cc(N(CCOS(C)(=O)=O)CCOS(C)(=O)=O)ccc1C=Nc1ccc(-c2csc(-c3ccc(Br)cc3)n2)cc1` here?
A: 145 % of control

Q: And the T/C (dose: 66.0 mg/kg/injection, schedule: Q04DX003 (ip), vehicle: Klucel (hydroxypropylcellulose) (HPC))?
A: 129 % of control

Q: What about the T/C (dose: 100.0 mg/kg/injection, schedule: Q04DX003 (ip), vehicle: Klucel (hydroxypropylcellulose) (HPC)) of the same molecule?
A: 136 % of control

Q: And the T/C (dose: 150.0 mg/kg/injection, schedule: Q04DX003 (ip), vehicle: Klucel (hydroxypropylcellulose) (HPC))?
A: 134 % of control

Q: What about the survivor count [4] of the same molecule?
A: 4 of 6

Q: `CC[n+]1ccccc1-c1ccc(NC(=O)c2ccc(C(=O)Nc3ccc(-c4ccccn4)cc3)cc2)cc1` was tested. Which T/C (dose: 1.1 mg/kg/injection, schedule: Q01DX Z (ip), vehicle: saline) did it give?
A: 136 % of control

Q: What about the T/C (dose: 1.7 mg/kg/injection, schedule: Q01DX Z (ip), vehicle: saline) of the same molecule?
A: 133 % of control

Q: And the T/C (dose: 6.6 mg/kg/injection, schedule: Q01DX001 (ip), vehicle: saline)?
A: 136 % of control

Q: What about the T/C (dose: 10.0 mg/kg/injection, schedule: Q01DX Z (ip), vehicle: saline) of the same molecule?
A: 131 and 139 % of control

Q: What about the survivor count (dose: 55.0 mg/kg/injection, schedule: Q01DX Z (ip), vehicle: saline) of the same molecule?
A: 6 of 6

Q: What about the survivor count (dose: 60.0 mg/kg/injection, schedule: Q01DX001 (ip), vehicle: saline) of the same molecule?
A: 4 of 4

Q: What about the survivor count (dose: 80.0 mg/kg/injection, schedule: Q01DX Z (ip), vehicle: saline) of the same molecule?
A: 6 of 6

Q: And the survivor count (dose: 90.0 mg/kg/injection, schedule: Q01DX001 (ip), vehicle: saline)?
A: 4 of 4

Q: And the survivor count (dose: 135.0 mg/kg/injection, schedule: Q01DX001 (ip), vehicle: saline)?
A: 4 of 4
